Source: PubChem BioAssay AID652243 (Drosophila RNAi Screening Center, 2013)

Aim: 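Knock-downs that decrease or increase androgen receptor reporter signal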 (primary screen)
Cells: Drosophila S2R+ cells
Knock-down reagent: long dsRNA against Drosophila genes
Time to read-out: 72 h (48 h, then 24 h hormone)
Challenge: synthetic androgen R1881 at 10 nM for 24 h
Read-out: 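Per-well raw luminescence of the androgen-driven firefly reporter and of the Renilla control, two replicates each, without normalisation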
Reading the numbers: firefly reporter light: higher = more light from androgen-responsive reporter; Renilla control light: higher = more constitutive control signal (cell number, transfection)
Active means: 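Hit when the log firefly-to-Renilla ratio dropped or increased by a fixed fold versus the mean of GFP or LacZ controls across duplicate plates; lowering cut given as 1.5 and as 3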
Meaning of the calls: active = hit: reporter lowered or raised; inactive = no hit
The screen tested about 24,000 reagents; this is an unselected part of those with a known target gene and a result. Over the whole deposit, 246 (1%) are marked active. 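Plates not normalised; calls are printed but the firefly/Renilla ratio behind them is not deposited; fold cut for lowering reported inconsistently.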 Raw values are not corrected between plates. Unmarked entries are inactive. Not given: the amount of reagent.

CG42618 (retired record) [DRSC38724] gave firefly reporter light, replicate 1 = 7.78e5; firefly reporter light, replicate 2 = 5.39e5; Renilla control light, replicate 1 = 1.53e6; Renilla control light, replicate 2 = 1.88e6.
CG10947 [DRSC02111] gave firefly reporter light, replicate 1 = 1.21e6; firefly reporter light, replicate 2 = 9.81e5; Renilla control light, replicate 1 = 1.55e6; Renilla control light, replicate 2 = 1.42e6.
Against CG10947 [DRSC27404] the deposit lists firefly reporter light, replicate 1 = 2.41e5; firefly reporter light, replicate 2 = 2.56e5; Renilla control light, replicate 1 = 6.82e5; Renilla control light, replicate 2 = 7.63e5.
Against CG31103 [DRSC22324], the entry reads firefly reporter light, replicate 1 = 7.63e5; firefly reporter light, replicate 2 = 7.04e5; Renilla control light, replicate 1 = 2.63e6; Renilla control light, replicate 2 = 2.16e6.
Ppn (Papilin) [DRSC15328] scored firefly reporter light, replicate 1 = 2.13e5; firefly reporter light, replicate 2 = 1.37e5; Renilla control light, replicate 1 = 2.44e6; Renilla control light, replicate 2 = 2.85e6.
Depletion of Ppn (Papilin) [DRSC27718] came out at: firefly reporter light, replicate 1 = 4.15e5; firefly reporter light, replicate 2 = 4.19e5; Renilla control light, replicate 1 = 6.52e5; Renilla control light, replicate 2 = 6.56e5.
CG1671 [DRSC06617] gave firefly reporter light, replicate 1 = 1.62e6; firefly reporter light, replicate 2 = 5.60e5; Renilla control light, replicate 1 = 2.07e6; Renilla control light, replicate 2 = 9.39e5.
CG8067 [DRSC07065] gave firefly reporter light, replicate 1 = 9.79e5; firefly reporter light, replicate 2 = 1.07e6; Renilla control light, replicate 1 = 1.08e6; Renilla control light, replicate 2 = 1.04e6.
Knock-down of DIP-zeta (Dpr-interacting protein zeta) [DRSC02203] resulted in: firefly reporter light, replicate 1 = 2.84e5; firefly reporter light, replicate 2 = 2.43e5; Renilla control light, replicate 1 = 1.67e6; Renilla control light, replicate 2 = 1.54e6.
Depletion of DIP-zeta (Dpr-interacting protein zeta) [DRSC02204] resulted in: firefly reporter light, replicate 1 = 6.40e5; firefly reporter light, replicate 2 = 9.53e5; Renilla control light, replicate 1 = 1.47e6; Renilla control light, replicate 2 = 1.79e6.
After knock-down of DIP-zeta (Dpr-interacting protein zeta) [DRSC02205], the screen gave firefly reporter light, replicate 1 = 1.36e5; firefly reporter light, replicate 2 = 1.92e5; Renilla control light, replicate 1 = 1.59e6; Renilla control light, replicate 2 = 1.93e6.
After knock-down of CG40160 [DRSC37756], the record shows firefly reporter light, replicate 1 = 6.61e5; firefly reporter light, replicate 2 = 7.73e5; Renilla control light, replicate 1 = 1.79e6; Renilla control light, replicate 2 = 1.27e6.
After knock-down of Myt1 [DRSC11228], the screen gave firefly reporter light, replicate 1 = 1.97e5; firefly reporter light, replicate 2 = 1.59e5; Renilla control light, replicate 1 = 1.73e6; Renilla control light, replicate 2 = 1.68e6.
Silencing of Myt1 [DRSC30071] resulted in: firefly reporter light, replicate 1 = 8.71e5; firefly reporter light, replicate 2 = 8.28e5; Renilla control light, replicate 1 = 1.20e6; Renilla control light, replicate 2 = 1.16e6.

2 consecutive reagents from above, quoted:
CG42618 (retired record) [DRSC38724] → firefly reporter light, replicate 1 = 7.78e5; firefly reporter light, replicate 2 = 5.39e5; Renilla control light, replicate 1 = 1.53e6; Renilla control light, replicate 2 = 1.88e6
CG10947 [DRSC02111] → firefly reporter light, replicate 1 = 1.21e6; firefly reporter light, replicate 2 = 9.81e5; Renilla control light, replicate 1 = 1.55e6; Renilla control light, replicate 2 = 1.42e6
